Values from PubChem BioAssay AID652272 (Drosophila RNAi Screening Center, 2013)

Purpose: 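Genome-wide knock-down search for components of Hedgehog signalling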 (primary screen)
System: Drosophila clone 8 (Cl8) cells
Knock-down reagent: long dsRNA against Drosophila genes
Detection: 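Plate reader light from a firefly reporter under a ptc promoter fragment that responds to Hedgehog, with Renilla light as transfection reference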
Reading the numbers: firefly Hh reporter signal: higher = more ptc reporter light; Renilla reference signal: higher = more Renilla control light
Active means: 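Hit when the z-score averaged over two replicates is under -2 or over +3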
Calls: active = hit: reporter lowered or raised; inactive = not a hit
The deposit covers about 21,000 reagents; below is a random part of those with a known target gene and a result. In the full data, 503 (2.4%) are marked active. 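Raw plate light values, not normalised; calls rest on replicate z-scores that were not deposited; hits include reporter decreases as well as increases.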 Entries without a mark were called inactive. Reagents against one gene are numbered here. Not given: the amount of reagent, the time to read-out.

Gene	reagent	firefly Hh reporter signal, replicate 1	firefly Hh reporter signal, replicate 2	firefly Hh reporter signal, replicate 3	Renilla reference signal, replicate 1	Renilla reference signal, replicate 2
Mer	1	79573	77725		1972	2035
sac	1	1.01e5	1.47e5		3637	4089
hgo	1	1.48e5	84384		3811	7445
Eaf6	1	66775	52746		6869	3753
CG31468	1	63105	2.61e5		14457	4733
disp	1	92980	93723		3945	3178
tum	1	1.12e5	60016		3142	4551
Jhbp5	1	65952	93073		1869	6408
BaraB	1	1.21e5	80745		2835	6274
Usp8	1	1.23e5	1.26e5		5078	5426
fus	1	1.14e5	2.95e5		3155	11404
fus	2	1.10e5	79940		5460	3384
JIL-1	1	91904	99841		6067	4785
CG13894	1	30713	15984		1377	1621
CG4267	1	4.33e5	1.86e5		24544	7961
CG4267	2	69555	81680		1756	1652
CG17597	1	73313	1.16e5		3152	4380
janA	1	1.08e5	1.20e5		3539	3666
Abcd3	1	80419	2.50e5		800	10360
sov	1	73200	86122		2333	1632
muskelin	1	1.10e5	92213		2695	5495
CG10734	1	83248	37298		2330	3140
ND-B14.5B	1	1.68e5	69371		4081	7187
CG5973	1	1.10e5	1.28e5		4548	5584
ocm	1	38690	36698		1691	1360
santa-maria	1	5.39e5	1.92e5		25594	7872
santa-maria	2	77852	74362		3728	3558
BG642163	1	83817	65223		2281	6477
BG642163	2	1.32e5	66417		3260	5993
CG9287	1	1.47e5	5.95e5	85954	3541	36080
comt	1	68986	2.07e5		1878	7429
CG34200	1	1.91e5	2.84e5		4317	12249
L	1	62440	37232		1930	3158
L	2	76352	34643		1891	2928
mthl9	1	82833	48297		2963	3545
CG10657	1	92786	4.72e5	65168	4115	27408
Gclc	1	1.02e5	2.89e5		4154	11024
CG13622	1	4.81e5	88555		25040	2187
CG15870	1	90096	50365		2073	4345
Obp69a	1	50637	16904	23831	1408	888
CG43980	1	2.42e5			5559	
CG43980	2	1.73e5	2.04e5		5702	5319
PolG1	1	1.98e5	1.02e5		5522	9187
CG13101	1	87568	77113		3765	3189
CG2736	1	1.08e5	99297		4752	3901
Noc1	1	1.00e5	41271		5608	2184
bb8	1	5.26e5	74327		26811	2549
mRRF2	1	5.46e5	1.23e5		29801	3147
Myb	1	84474	50874		2336	1197
spab	1	1.10e5	60662		2886	5824
CG15480	1	2.12e5	84907		4713	6925
CG11700	1	5258 (active)	13079		454	1632
CG17826	1	53136	69040	59401	5303	4023
CG14229	1	49521	1.65e5		1082	6955
Set	1	1.09e5	82999		4209	2964
Sec31	1	59714	32445		2888	1478
nanos	1	4.52e5	54808		21509	1403

Single entries from the entries so far:
Result for CG15870 under “firefly Hh reporter signal, replicate 2”: 50365
Under “Renilla reference signal, replicate 1”, CG5973 shows 4548
CG10657, firefly Hh reporter signal, replicate 2: 4.72e5
Under “firefly Hh reporter signal, replicate 2”, CG13101 has 77113
